Results: PMC10180911
No constants are given. Whether binding was seen depends on the method and setting.

Target: T1, SUN3, full-length, MYTH bait (Arabidopsis thaliana) (UniProt F4I316)
T1 sequence: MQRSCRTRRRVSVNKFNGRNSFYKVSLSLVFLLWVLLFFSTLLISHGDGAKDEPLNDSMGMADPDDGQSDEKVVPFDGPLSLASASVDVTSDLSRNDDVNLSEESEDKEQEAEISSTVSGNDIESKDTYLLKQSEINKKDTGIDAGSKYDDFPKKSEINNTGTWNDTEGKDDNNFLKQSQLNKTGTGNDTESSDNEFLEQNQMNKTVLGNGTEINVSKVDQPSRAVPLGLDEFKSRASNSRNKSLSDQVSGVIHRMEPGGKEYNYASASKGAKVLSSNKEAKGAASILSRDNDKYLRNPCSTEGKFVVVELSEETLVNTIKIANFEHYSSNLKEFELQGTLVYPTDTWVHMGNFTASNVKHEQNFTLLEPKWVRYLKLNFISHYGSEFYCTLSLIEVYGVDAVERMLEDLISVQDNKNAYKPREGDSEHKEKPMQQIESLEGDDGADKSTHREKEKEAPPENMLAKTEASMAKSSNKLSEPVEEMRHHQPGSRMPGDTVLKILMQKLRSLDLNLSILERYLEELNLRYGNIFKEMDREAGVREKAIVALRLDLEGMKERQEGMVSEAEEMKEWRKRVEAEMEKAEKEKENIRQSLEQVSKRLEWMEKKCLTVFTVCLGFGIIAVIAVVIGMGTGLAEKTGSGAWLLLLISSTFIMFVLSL
Test: two-hybrid; split-ubiquitin MYTH, drop tests of named pairs on permissive (YNB -Leu -Trp) and test medium (YNB -Leu -Trp -Ade -His); strain NMY51; bait plasmid pBT3N, prey plasmid pPR3N

binding: no binding
Substance: MYB domain of maMYB, MYTH prey (Arabidopsis thaliana) (domain or fragment)
